Test results: US20250312451A1
Results are given in words; binding and its absence hold for the method and conditions named. Some results given as binding are weak or reduced against the parent protein; the word gives no strength. For some assays here: Tags and fused reporters may be left off the sequences shown.

Sequences of proteins named here, by UniProt entry; tags and fusion partners are left off. Residues count along the entry.
UniProt P20138, residues 18-259: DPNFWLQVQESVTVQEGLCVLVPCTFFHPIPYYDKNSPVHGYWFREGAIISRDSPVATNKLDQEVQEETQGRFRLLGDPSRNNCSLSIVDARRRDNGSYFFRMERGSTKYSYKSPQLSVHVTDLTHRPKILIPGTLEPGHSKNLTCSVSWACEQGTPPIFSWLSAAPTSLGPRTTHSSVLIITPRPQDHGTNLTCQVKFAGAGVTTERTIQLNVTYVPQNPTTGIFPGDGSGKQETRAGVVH

Experiments:
[1] = target: T1, recombinant CLL1-Fc fusion (UniProt Q5QGZ9); experiment: flow cytometry; transduced T cells stained with recombinant CLL1-Fc fusion
T1 sequence (looked up): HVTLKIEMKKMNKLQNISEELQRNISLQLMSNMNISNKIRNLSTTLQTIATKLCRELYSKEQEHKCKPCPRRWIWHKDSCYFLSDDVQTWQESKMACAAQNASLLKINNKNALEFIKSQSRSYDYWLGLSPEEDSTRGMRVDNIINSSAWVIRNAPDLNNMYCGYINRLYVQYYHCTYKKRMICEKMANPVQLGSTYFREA

[2] = target: recombinant CD33-Fc fusion (UniProt P20138); experiment: flow cytometry; transduced T cells stained with recombinant CD33-Fc fusion

binding [1]: binds
binding [2]: binds
B1: SR006 targeting component (antiCLL1.G4S.FRB.2xG4S.antiCD33.minCD4hinge.CD4tm.CD4ic), on transduced T cells (receptor)
chain: EVQLVESGGGEVQPGGSLRLSCAASGFLFSIYDMNWYRQAPGKEREWVAGITNNGYSTAYAESVKGRFTISRDNAKNTIYLQMSSLRAEDTAVYYCHADLTKAYDVEYAWGQGTLVTVKPGGGGSLWHEMWHEGLEEASRLYFGERNVKGMFEVLEPLHAMMERGPQTLKETSFNQAYGRDLMEAQEWCRKYMKSGNVKDLTQAWDLYYHVFRRISKGGGGSGGGGSEVQLVESGGGEVQPGGSLRLSCAASRSSGIDVMGWYRQAPGKERELVAEISGVGDTNYAASLADRFTVSRDNAKNTVYLQMSSLRAEDTAVYYCNAHSFLDLVGAWGQGTLVTVKPSNIKVLPTWSTPVQPMALIVLGGVAGLLLFIGLGIFFCVRCRHRRRQ
